Assay: peptide synthesis
Settings: late stage modification step, HPLC vs internal standard S4, 300 nm

In the case of Ac-MGDFQ NH2, the step yield is reported as 51%.
